The experiment addresses HA-tagged MAP1B (microtubule-associated protein 1B) (human). Nature of the experiment: affinity purification with mass spectrometry; HA immunoprecipitation from lysates of HeLa cells stably expressing HA-MAP1B (parental HeLa as negative control, n = 4); MCLB buffer (50 mM Tris pH 7.4, 150 mM NaCl, 0.5% NP40), anti-HA agarose overnight at 4°C, elution with HA peptide, label-free quantification.

These are yes or no findings as the source states them, for the method shown. In cells and extracts the contact can be indirect. Here binding means that the protein was enriched with, or labelled near, the bait; the list need not be complete.

Consider 1 molecule from paper PMC9258132, “Multi-omics profiling identifies a deregulated FUS-MAP1B axis in ALS/FTD–associated UBQLN2 mutants”.

B1: ubiquitin-binding protein FAF2 (UBXD8) (protein, UniProt Q96CS3 1-445)
chain: MAAPEERDLTQEQTEKLLQFQDLTGIESMDQCRHTLEQHNWNIEAAVQDRLNEQEGVPSVFNPPPSRPLQVNTADHRIYSYVVSRPQPRGLLGWGYYLIMLPFRFTYYTILDIFRFALRFIRPDPRSRVTDPVGDIVSFMHSFEEKYGRAHPVFYQGTYSQALNDAKRELRFLLVYLHGDDHQDSDEFCRNTLCAPEVISLINTRMLFWACSTNKPEGYRVSQALRENTYPFLAMIMLKDRRMTVVGRLEGLIQPDDLINQLTFIMDANQTYLVSERLEREERNQTQVLRQQQDEAYLASLRADQEKERKKREERERKRRKEEEVQQQKLAEERRRQNLQEEKERKLECLPPEPSPDDPESVKIIFKLPNDSRVERRFHFSQSLTVIHDFLFSLKESPEKFQIEANFPRRVLPCIPSEEWPNPPTLQEAGLSHTEVLFVQDLTDE
For B1, the binding entry is reported as “binds”.
